Laboratory results taken from doi:10.1101/2024.05.24.595750.
These are yes or no findings as the source states them, for the method shown. Binding seen in cells or lysates may run through a third protein. Some results given as binding are weak or reduced against the parent protein; the word gives no strength.

T1: endothelial NO synthase (eNOS), human, endogenous (human (endogenous in human umbilical vein endothelial cells)) (UniProt P29474)
T1 sequence: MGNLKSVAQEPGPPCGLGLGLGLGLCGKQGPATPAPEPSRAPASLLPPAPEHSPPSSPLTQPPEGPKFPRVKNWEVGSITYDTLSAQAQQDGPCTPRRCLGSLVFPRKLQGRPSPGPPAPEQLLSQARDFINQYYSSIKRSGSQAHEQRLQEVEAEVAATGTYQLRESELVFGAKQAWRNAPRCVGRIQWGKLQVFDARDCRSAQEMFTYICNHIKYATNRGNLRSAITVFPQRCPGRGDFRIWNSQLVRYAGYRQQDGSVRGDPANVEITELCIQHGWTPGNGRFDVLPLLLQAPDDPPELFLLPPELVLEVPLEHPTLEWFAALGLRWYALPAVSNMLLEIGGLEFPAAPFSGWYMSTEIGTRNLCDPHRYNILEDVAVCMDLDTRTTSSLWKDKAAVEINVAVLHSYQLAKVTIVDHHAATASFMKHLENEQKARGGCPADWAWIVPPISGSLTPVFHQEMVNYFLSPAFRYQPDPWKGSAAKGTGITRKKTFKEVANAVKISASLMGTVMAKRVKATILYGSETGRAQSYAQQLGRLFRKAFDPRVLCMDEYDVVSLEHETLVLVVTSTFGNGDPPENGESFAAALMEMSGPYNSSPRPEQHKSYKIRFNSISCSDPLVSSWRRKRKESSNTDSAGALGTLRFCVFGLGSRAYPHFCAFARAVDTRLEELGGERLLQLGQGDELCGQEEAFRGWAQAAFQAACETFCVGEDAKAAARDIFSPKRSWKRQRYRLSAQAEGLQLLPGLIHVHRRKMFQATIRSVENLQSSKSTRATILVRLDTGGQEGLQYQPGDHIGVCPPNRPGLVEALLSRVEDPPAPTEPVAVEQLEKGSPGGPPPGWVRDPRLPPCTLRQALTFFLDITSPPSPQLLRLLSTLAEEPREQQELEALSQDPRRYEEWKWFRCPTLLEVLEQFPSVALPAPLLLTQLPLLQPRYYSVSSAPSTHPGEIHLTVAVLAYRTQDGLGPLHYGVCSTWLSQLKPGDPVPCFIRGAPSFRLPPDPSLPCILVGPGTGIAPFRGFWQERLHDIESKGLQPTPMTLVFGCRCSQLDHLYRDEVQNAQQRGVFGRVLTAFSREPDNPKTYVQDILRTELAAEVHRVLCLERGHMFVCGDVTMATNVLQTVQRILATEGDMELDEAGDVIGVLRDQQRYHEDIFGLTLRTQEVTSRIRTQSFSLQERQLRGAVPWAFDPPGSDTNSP

T2: endothelial NO synthase (eNOS), murine, endogenous (mouse (endogenous in murine lung endothelial cells)) (UniProt P70313)
T2 sequence: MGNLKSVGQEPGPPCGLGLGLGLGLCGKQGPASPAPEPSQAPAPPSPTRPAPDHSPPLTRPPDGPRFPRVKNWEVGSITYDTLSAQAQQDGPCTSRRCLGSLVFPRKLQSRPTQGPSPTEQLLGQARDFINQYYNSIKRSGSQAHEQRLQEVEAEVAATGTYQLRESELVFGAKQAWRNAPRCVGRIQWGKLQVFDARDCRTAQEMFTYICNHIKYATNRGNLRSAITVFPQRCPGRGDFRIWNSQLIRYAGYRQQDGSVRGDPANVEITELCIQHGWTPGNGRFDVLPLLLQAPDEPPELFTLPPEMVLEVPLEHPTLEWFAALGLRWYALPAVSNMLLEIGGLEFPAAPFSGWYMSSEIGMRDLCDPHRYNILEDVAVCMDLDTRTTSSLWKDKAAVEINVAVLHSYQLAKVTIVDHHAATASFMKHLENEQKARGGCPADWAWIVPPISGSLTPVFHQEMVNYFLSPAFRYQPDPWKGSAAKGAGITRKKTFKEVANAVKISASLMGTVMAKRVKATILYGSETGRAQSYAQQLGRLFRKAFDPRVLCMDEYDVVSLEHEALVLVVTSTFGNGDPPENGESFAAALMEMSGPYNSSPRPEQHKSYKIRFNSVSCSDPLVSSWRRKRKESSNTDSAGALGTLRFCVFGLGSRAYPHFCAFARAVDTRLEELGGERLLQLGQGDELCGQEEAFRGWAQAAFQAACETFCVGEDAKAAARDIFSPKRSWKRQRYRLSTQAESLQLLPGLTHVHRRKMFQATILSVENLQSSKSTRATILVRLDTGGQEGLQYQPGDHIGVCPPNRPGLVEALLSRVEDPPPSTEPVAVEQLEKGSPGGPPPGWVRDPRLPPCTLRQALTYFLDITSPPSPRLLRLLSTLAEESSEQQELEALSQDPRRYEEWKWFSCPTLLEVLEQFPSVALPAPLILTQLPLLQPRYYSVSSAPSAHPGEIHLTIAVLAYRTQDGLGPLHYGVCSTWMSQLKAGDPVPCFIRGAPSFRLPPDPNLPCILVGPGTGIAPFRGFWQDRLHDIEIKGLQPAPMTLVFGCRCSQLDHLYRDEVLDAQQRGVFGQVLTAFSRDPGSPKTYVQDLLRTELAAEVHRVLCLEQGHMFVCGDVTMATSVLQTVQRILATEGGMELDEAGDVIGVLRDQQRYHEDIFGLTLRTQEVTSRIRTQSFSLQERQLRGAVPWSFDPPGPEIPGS


Assays:
[1] = target: T1, endothelial NO synthase (eNOS), human, endogenous (human (endogenous in human umbilical vein endothelial cells)); assay: co-IP
[2] = target: T2, endothelial NO synthase (eNOS), murine, endogenous (mouse (endogenous in murine lung endothelial cells)); assay: co-IP

Binder | binding [1] | binding [2]
double-stranded RNA-specific adenosine deaminase (ADAR1), human, endogenous (enzyme, UniProt P55265 1-1226) MNPRQGYSLSGYYTHPFQGYEHRQLRYQQPGPGSSPSSFLLKQIEFLKGQLPEAPVIGKQTPSLPPSLPGLRPRFPVLLASSTRGRQVDIRGVPRGVHLRSQGLQRGFQHPSPRGRSLPQRGVDCLSSHFQELSIYQDQEQRILKFLEELGEGKATTAHDLSGKLGTPKKEINRVLYSLAKKGKLQKEAGTPPLWKIAVSTQAWNQHSGVVRPDGHSQGAPNSDPSLEPEDRNSTSVSEDLLEPFIAVSAQAWNQHSGVVRPDSHSQGSPNSDPGLEPEDSNSTSALEDPLEFLDMAEIKEKICDYLFNVSDSSALNLAKNIGLTKARDINAVLIDMERQGDVYRQGTTPPIWHLTDKKRERMQIKRNTNSVPETAPAAIPETKRNAEFLTCNIPTSNASNNMVTTEKVENGQEPVIKLENRQEARPEPARLKPPVHYNGPSKAGYVDFENGQWATDDIPDDLNSIRAAPGEFRAIMEMPSFYSHGLPRCSPYKKLTECQLKNPISGLLEYAQFASQTCEFNMIEQSGPPHEPRFKFQVVINGREFPPAEAGSKKVAKQDAAMKAMTILLEEAKAKDSGKSEESSHYSTEKESEKTAESQTPTPSATSFFSGKSPVTTLLECMHKLGNSCEFRLLSKEGPAHEPKFQYCVAVGAQTFPSVSAPSKKVAKQMAAEEAMKALHGEATNSMASDNQPEGMISESLDNLESMMPNKVRKIGELVRYLNTNPVGGLLEYARSHGFAAEFKLVDQSGPPHEPKFVYQAKVGGRWFPAVCAHSKKQGKQEAADAALRVLIGENEKAERMGFTEVTPVTGASLRRTMLLLSRSPEAQPKTLPLTGSTFHDQIAMLSHRCFNTLTNSFQPSLLGRKILAAIIMKKDSEDMGVVVSLGTGNRCVKGDSLSLKGETVNDCHAEIISRRGFIRFLYSELMKYNSQTAKDSIFEPAKGGEKLQIKKTVSFHLYISTAPCGDGALFDKSCSDRAMESTESRHYPVFENPKQGKLRTKVENGEGTIPVESSDIVPTWDGIRLGERLRTMSCSDKILRWNVLGLQGALLTHFLQPIYLKSVTLGYLFSQGHLTRAICCRVTRDGSAFEDGLRHPFIVNHPKVGRVSIYDSKRQSGKTKETSVNWCLADGYDLEILDGTRGTVDGPRNELSRVSKKNIFLLFKKLCSFRYRRDLLRLSYGEAKKAARDYETAKNYFKKGLKDMGYGNWISKPQEEKNFYLCPV | binds | 
double-stranded RNA-specific adenosine deaminase (ADAR1), murine, endogenous (enzyme, UniProt Q99MU3 1-1178) MSQGFRGPTGVFPHQTQSYLDPSHEHSKWRYPQPQGPESYPRSFQLQQIEFLKGRLPEAPLIGIQTQSLPPFLPGHWPRFPGPPAQDRQLEIWEFPRSVTLRNQGFHIGPPLPPPHSRGTPWRGADGLCSHFRELSISQSPEQKVLNRLEELGEGKATTAHVLARELRIPKRDINRILYSLEKKGKLHRGRGKPPLWSLVPLSQAWTQPPGVVNPDSCIQEFPRGEPGLDSEDGDPASDLEGPSEPLDMAEIKEKICDYLFNVSNSSALNLAKNIGLTKARDVTSVLIDLERQGDVYRQGATPPIWYLTDKKRERLQMKRSTHSAPAPTPTAVPEATRSPSFPACHPPPAGASSSVAASKRVENGQEPAIKHESRHEARPGPMRLRPHAYHNGPSRAGYVASENGQWATDDIPDNLNSIHTAPGEFRAIMEMPSFYSPTLPRCSPYKKLTECQLKNPVSGLLEYAQFTSQTCDFNLIEQSGPSHEPRFKFQVVINGREFPPAEAGSKKVAKQDAAVKAMAILLREAKAKDSGQPEDLSHCPMEEDSEKPAEAQAPSSSATSLFSGKSPVTTLLECMHKLGNSCEFRLLSKEGPAHDPKFQYCVAVGAQTFPPVSAPSKKVAKQMAAEEAMKALQEEAASSADDQSGGANTDSLDESMAPNKIRRIGELVRYLNTNPVGGLLEYARSHGFAAEFKLIDQSGPPHEPKFVYQAKVGGRWFPAVCAHSKKQGKQDAADAALRVLIGESEKAEQLGFAEVTPVTGASLRRTMLLLSRSPDAHPKTLPLSGSTFHDQIAMLSHRCFNALTNSFQPSLLGRKILAAIIMKRDPEDMGVVVSLGTGNRCVKGDSLSLKGETVNDCHAEIISRRGFIRFLYSELMKYNHHTAKNSIFELARGGEKLQIKKTVSFHLYISTAPCGDGALFDKSCSDRAVESTESRHYPVFENPKQGKLRTKVENGEGTIPVESSDIVPTWDGIRLGERLRTMSCSDKILRWNVLGLQGALLTHFLQPVYLKSVTLGYLFSQGHLTRAICCRVTRDGKAFEDGLRYPFIVNHPKVGRVSVYDSKRQSGKTKETSVNWCMADGYDLEILDGTRGTVDGPGKELSRVSKKNIFLQFKKLCSFRARRDLLQLSYGEAKKAARDYDLAKNYFKKSLRDMGYGNWISKPQEEKNFYLCPVPND |  | binds
